In US20140079643A1:
No constants are given. Whether binding was seen depends on the method and setting. Some entries that bind do so weakly or less than the wild type.

The chains behind the UniProt entries cited, without tags or fusion partners. Residues count along the entry.
UniProt P24394, residues 26-232: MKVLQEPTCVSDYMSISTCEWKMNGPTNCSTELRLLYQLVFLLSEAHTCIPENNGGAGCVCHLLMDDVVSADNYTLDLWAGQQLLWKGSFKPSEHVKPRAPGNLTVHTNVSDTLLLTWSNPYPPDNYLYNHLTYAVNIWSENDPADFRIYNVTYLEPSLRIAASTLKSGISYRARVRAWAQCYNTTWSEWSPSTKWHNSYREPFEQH

Key:
[1] = biological target: ectodomain of the human IL-4 receptor (IL-4Ra) (human) (UniProt P24394); assay: SPR, binding constant shown in FIG. 3
[2] = biological target: ectodomain of the human IL-4 receptor (IL-4Ra) (human) (UniProt P24394); assay: SPR, Biacore 2000, IL-4Ra ectodomain coated on CM5 chip, analyte in flow

- binding [1]: binds
- binding [2]: binds
B1: AP-1 peptide (peptide)
peptide: KRLDRN
